The supplement of paper PMC12823440, “Inhibitors supercharge kinase turnover through native proteolytic circuits” (Nature, 2025)
The list shows a part of the results. The calls rarely recur for the same compound in another form.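 Kinases, fused to nanoluciferase, were expressed in K562 cells; luminescence was measured every 4 h from 2 to 18 h as percent of control (DMSO = 100%, positive control = 0%). A time point is decreased if signal falls significantly (2 sigma). Hits were called by the authors by a rule that is not shown; the count of time points alone does not decide it.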

Amino acid sequences for entries named in this document (tags omitted). A change or cut given only in a name is not applied to a line headed by its entry.
UniProt P07949, whole entry, looked up: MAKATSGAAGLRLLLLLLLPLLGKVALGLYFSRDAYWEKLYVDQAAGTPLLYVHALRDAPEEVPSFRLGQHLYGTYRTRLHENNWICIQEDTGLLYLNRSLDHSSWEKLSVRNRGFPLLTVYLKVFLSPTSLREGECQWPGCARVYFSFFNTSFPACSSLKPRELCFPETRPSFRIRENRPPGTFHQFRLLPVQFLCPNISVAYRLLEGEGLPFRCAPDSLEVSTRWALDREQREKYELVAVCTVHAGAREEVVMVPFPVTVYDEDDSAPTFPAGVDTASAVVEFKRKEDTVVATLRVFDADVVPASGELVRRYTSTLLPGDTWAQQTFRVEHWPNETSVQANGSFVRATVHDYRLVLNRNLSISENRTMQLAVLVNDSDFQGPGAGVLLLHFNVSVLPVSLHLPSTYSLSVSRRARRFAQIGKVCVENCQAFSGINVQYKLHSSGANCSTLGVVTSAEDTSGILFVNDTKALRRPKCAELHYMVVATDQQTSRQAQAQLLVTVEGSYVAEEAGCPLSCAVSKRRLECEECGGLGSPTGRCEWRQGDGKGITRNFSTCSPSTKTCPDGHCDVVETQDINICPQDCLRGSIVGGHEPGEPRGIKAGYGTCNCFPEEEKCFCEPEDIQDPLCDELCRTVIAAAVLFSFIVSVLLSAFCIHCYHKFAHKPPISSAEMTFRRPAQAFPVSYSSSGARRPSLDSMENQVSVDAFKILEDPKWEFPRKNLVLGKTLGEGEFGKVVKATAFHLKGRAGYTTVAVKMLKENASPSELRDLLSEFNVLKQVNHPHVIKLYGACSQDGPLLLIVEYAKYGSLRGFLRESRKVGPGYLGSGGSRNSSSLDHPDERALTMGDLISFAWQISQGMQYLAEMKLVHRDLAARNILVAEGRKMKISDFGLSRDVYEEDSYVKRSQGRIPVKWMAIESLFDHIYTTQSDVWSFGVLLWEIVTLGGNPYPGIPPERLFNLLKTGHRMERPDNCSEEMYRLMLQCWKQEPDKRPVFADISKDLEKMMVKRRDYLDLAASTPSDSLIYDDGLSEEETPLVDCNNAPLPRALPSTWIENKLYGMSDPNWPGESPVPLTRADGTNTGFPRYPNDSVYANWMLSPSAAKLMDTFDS
UniProt Q13546: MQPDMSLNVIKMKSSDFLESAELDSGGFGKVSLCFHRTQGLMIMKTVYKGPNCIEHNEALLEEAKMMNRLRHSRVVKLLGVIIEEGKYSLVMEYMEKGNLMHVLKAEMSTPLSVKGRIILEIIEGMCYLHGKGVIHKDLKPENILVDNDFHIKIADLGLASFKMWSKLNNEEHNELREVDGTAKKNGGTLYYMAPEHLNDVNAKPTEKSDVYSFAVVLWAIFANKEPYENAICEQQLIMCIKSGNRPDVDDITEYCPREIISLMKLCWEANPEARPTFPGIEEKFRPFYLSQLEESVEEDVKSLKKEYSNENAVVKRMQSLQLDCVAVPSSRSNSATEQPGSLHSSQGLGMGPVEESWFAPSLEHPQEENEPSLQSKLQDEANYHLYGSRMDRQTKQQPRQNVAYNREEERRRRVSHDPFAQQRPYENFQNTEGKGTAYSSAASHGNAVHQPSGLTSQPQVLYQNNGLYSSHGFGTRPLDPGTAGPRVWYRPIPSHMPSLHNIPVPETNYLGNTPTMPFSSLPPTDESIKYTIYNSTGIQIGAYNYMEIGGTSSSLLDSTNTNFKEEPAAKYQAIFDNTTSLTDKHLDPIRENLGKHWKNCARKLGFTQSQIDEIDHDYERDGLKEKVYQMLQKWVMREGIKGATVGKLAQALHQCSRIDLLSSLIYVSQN
UniProt Q15418, whole entry: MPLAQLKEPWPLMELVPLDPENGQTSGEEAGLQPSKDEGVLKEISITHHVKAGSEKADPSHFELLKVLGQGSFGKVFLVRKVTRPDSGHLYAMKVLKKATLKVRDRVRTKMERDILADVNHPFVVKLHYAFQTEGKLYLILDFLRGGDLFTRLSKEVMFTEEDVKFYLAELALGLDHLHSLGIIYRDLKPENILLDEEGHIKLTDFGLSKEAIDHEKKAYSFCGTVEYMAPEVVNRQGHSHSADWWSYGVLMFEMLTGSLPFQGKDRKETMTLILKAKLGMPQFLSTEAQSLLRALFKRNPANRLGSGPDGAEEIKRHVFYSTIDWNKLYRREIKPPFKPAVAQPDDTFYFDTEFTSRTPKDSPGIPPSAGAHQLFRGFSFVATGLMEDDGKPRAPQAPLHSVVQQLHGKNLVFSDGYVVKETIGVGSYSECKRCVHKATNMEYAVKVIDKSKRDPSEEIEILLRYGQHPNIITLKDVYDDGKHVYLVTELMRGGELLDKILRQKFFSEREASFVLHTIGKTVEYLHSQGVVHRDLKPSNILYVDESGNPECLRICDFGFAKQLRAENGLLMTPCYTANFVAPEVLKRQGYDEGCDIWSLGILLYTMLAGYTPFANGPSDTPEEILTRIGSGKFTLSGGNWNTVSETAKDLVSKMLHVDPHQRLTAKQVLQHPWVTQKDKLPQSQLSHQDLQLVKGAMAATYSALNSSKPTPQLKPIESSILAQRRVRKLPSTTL
UniProt Q15208: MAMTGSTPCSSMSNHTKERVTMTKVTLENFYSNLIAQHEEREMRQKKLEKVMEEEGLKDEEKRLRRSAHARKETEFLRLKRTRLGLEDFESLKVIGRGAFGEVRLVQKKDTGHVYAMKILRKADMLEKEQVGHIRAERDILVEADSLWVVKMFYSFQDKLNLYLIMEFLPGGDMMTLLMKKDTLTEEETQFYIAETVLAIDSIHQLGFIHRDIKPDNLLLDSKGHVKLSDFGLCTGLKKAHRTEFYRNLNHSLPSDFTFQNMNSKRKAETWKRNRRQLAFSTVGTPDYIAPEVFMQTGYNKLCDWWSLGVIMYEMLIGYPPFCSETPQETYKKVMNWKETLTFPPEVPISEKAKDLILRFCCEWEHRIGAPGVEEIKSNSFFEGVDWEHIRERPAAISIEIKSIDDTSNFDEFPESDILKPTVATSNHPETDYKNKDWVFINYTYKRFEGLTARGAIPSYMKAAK
UniProt P29597: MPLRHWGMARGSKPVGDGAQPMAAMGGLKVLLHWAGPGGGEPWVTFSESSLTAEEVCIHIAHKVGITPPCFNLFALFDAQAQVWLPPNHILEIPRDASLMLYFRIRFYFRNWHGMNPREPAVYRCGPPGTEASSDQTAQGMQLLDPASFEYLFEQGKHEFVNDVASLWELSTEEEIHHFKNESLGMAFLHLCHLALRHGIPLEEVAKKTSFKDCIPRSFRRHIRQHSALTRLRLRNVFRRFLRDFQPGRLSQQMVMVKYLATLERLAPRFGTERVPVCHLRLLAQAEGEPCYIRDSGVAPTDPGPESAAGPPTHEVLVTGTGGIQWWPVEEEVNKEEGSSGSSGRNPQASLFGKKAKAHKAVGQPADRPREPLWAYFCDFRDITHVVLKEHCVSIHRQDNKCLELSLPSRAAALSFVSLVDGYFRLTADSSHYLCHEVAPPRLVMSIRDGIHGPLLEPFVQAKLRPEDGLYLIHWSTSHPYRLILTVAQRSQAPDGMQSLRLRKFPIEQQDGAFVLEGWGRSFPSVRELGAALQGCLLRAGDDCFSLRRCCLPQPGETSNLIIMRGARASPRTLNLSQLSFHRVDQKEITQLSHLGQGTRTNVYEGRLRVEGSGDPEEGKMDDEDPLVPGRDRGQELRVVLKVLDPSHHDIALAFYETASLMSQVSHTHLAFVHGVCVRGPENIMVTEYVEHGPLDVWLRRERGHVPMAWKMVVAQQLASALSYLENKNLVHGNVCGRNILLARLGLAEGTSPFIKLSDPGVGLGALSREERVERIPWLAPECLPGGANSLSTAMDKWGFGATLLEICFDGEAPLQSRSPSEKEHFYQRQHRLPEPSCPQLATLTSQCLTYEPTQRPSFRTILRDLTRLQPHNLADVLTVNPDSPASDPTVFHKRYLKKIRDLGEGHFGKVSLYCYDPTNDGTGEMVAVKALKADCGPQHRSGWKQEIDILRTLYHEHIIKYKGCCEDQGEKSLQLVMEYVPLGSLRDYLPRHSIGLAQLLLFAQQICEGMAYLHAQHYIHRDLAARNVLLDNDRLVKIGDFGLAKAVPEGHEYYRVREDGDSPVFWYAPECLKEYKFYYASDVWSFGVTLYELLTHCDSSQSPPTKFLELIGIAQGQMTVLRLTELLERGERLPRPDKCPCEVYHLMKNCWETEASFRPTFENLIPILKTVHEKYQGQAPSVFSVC
UniProt Q6PHR2: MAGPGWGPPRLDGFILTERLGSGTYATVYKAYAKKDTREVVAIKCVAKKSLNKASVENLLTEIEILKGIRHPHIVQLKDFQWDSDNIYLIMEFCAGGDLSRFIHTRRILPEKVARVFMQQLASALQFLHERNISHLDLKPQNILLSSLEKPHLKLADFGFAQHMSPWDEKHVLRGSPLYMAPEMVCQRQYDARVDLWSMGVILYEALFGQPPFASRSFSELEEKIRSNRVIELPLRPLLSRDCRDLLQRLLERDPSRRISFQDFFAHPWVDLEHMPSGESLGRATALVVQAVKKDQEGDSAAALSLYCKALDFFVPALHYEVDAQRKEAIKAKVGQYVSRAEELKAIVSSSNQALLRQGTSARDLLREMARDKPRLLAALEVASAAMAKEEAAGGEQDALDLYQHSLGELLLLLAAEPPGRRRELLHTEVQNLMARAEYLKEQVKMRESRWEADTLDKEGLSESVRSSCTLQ
UniProt P00519, whole entry: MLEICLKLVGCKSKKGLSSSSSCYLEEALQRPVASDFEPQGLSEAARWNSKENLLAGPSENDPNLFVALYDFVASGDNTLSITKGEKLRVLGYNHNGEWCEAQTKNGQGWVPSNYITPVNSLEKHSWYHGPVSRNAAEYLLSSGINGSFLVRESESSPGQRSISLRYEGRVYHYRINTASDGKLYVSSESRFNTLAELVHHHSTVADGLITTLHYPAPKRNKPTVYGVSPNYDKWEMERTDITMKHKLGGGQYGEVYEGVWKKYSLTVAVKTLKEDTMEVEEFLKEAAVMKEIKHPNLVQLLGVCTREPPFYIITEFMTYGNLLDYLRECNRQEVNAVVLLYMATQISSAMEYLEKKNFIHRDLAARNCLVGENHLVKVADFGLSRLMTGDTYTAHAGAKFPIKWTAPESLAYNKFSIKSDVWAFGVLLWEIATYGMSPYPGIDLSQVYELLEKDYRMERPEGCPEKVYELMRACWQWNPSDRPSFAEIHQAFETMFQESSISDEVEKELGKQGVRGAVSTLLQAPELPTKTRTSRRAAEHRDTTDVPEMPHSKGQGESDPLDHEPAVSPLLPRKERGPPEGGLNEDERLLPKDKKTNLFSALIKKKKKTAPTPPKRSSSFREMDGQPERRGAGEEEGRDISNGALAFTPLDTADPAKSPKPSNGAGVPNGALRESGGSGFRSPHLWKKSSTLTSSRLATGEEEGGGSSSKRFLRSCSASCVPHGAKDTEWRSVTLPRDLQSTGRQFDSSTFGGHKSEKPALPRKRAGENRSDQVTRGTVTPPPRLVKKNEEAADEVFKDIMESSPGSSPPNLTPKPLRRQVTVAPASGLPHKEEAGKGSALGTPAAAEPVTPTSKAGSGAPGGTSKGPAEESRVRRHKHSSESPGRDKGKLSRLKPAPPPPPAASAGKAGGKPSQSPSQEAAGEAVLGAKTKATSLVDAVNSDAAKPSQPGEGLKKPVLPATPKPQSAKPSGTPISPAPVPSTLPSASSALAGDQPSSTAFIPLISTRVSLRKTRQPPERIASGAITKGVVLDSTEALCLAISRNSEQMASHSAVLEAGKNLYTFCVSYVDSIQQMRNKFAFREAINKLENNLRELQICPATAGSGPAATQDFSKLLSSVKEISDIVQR
UniProt P31749: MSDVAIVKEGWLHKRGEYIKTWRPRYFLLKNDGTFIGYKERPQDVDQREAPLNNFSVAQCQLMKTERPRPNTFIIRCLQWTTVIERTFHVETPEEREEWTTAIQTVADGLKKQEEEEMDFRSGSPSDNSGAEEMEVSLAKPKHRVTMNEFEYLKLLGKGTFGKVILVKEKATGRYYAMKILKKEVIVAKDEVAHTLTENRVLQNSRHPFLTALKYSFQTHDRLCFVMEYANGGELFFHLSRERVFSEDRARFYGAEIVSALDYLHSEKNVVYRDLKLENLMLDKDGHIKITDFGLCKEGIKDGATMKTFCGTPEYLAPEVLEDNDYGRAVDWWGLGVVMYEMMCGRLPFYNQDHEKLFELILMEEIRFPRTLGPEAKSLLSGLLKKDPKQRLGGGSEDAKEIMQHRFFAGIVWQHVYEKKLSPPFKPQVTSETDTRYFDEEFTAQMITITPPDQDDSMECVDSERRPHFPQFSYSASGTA

Assays:
Settings in all cases: K562; 2-18 h
RET = RET (UniProt P07949); test: kinase-Nluc reporter destabilization hit call (1 = scored as downregulated) (binary); higher = compound decreases kinase abundance
[1] = target: RET_M918T (clone: RET_mut) (UniProt P07949); test: as above
RIOK1 = RIOK1 (UniProt Q9BRS2); test: as above
RIPK1 = RIPK1 (UniProt Q13546); test: as above
RIPK2 = RIPK2 (UniProt O43353); test: as above
ROR2 = ROR2 (UniProt Q01974); test: as above
RPS6KA1 = RPS6KA1 (UniProt Q15418); test: as above
SPHK1 = SPHK1 (UniProt Q9NYA1); test: as above
SRC = SRC (UniProt P12931); test: as above
STK24 = STK24 (UniProt Q9Y6E0); test: as above
STK38 = STK38 (UniProt Q15208); test: as above
SYK = SYK (UniProt P43405); test: as above
TEC = TEC (UniProt P42680); test: as above
TYK2 = TYK2 (UniProt P29597); test: as above
ULK3 = ULK3 (UniProt Q6PHR2); test: as above
YES1 = YES1 (UniProt P07947); test: as above
ZAK = ZAK (UniProt Q9NYL2); test: as above
ZAP70 = ZAP70 (UniProt P43403); test: as above
ABL1 = ABL1 (UniProt P00519); test: number of time points (of 5) at which kinase-Nluc abundance scored as decreased, DMSO-normalised (count); higher = more persistent destabilization
AKT1 = AKT1 (UniProt P31749); test: as above

Row | SMILES | kinase-Nluc reporter destabilization hit call (RET) | kinase-Nluc reporter destabilization hit call [1] | kinase-Nluc reporter destabilization hit call (RIOK1) | kinase-Nluc reporter destabilization hit call (RIPK1) | kinase-Nluc reporter destabilization hit call (RIPK2) | kinase-Nluc reporter destabilization hit call (ROR2) | kinase-Nluc reporter destabilization hit call (RPS6KA1) | kinase-Nluc reporter destabilization hit call (SPHK1) | kinase-Nluc reporter destabilization hit call (SRC) | kinase-Nluc reporter destabilization hit call (STK24) | kinase-Nluc reporter destabilization hit call (STK38) | kinase-Nluc reporter destabilization hit call (SYK) | kinase-Nluc reporter destabilization hit call (TEC) | kinase-Nluc reporter destabilization hit call (TYK2) | kinase-Nluc reporter destabilization hit call (ULK3) | kinase-Nluc reporter destabilization hit call (YES1) | kinase-Nluc reporter destabilization hit call (ZAK) | kinase-Nluc reporter destabilization hit call (ZAP70) | number of time points (ABL1) | number of time points (AKT1)
1 | COc1c(O)cc(O)c2c(=O)cc(-c3ccccc3)oc12 [Wogonin] (10 µM) | inactive: 0 | inactive: 0 | inactive: 0 | inactive: 0 | inactive: 0 | inactive: 0 | inactive: 0 | inactive: 0 | inactive: 0 | inactive: 0 | inactive: 0 | inactive: 0 | inactive: 0 | inactive: 0 | inactive: 0 | inactive: 0 | inactive: 0 | inactive: 0 | 0 | 0
2 | COc1ccc2cc1Oc1ccc(cc1)C[C@H]1c3cc(c(OC)cc3CCN1C)Oc1c(O)c(OC)cc3c1[C@H](C2)N(C)CC3 [Fangchinoline] (2.5 µM) | inactive: 0 | inactive: 0 | inactive: 0 | inactive: 0 | inactive: 0 | inactive: 0 | inactive: 0 | inactive: 0 | inactive: 0 | inactive: 0 | inactive: 0 | inactive: 0 | inactive: 0 | inactive: 0 | inactive: 0 | inactive: 0 | inactive: 0 | inactive: 0 | 0 | 0
3 | O=C(O)c1c[nH]c2cc(Cl)c(-c3ccc(C4(O)CCC4)cc3)cc12 (10 µM) | inactive: 0 | inactive: 0 | inactive: 0 | inactive: 0 | inactive: 0 | inactive: 0 | inactive: 0 | inactive: 0 | inactive: 0 | inactive: 0 | inactive: 0 | inactive: 0 | inactive: 0 | inactive: 0 | inactive: 0 | inactive: 0 | inactive: 0 | inactive: 0 | 0 | 0
4 | Nc1[nH]nc2nnc(-c3c(-c4ccccc4)nn4ccccc34)cc12 (10 µM) | inactive: 0 | inactive: 0 | inactive: 0 | inactive: 0 | inactive: 0 | inactive: 0 | inactive: 0 | inactive: 0 | inactive: 0 | inactive: 0 | inactive: 0 | inactive: 0 | inactive: 0 | inactive: 0 | inactive: 0 | inactive: 0 | inactive: 0 | inactive: 0 | 0 | 0
5 | O=C(Nc1ccnc(NC(=O)C2CC2)c1)c1c(Cl)cccc1Cl (10 µM) | inactive: 0 | inactive: 0 | inactive: 0 | inactive: 0 | inactive: 0 | inactive: 0 | inactive: 0 | inactive: 0 | inactive: 0 | inactive: 0 | inactive: 0 | inactive: 0 | inactive: 0 | inactive: 0 | inactive: 0 | inactive: 0 | inactive: 0 | inactive: 0 | 0 | 0
6 | O=C(NC[C@H](O)CO)c1ccncc1Nc1ccc(I)cc1F [Pimasertib] (10 µM) | inactive: 0 | inactive: 0 | inactive: 0 | inactive: 0 | inactive: 0 | inactive: 0 | inactive: 0 | inactive: 0 | inactive: 0 | inactive: 0 | inactive: 0 | inactive: 0 | inactive: 0 | inactive: 0 | inactive: 0 | inactive: 0 | inactive: 0 | inactive: 0 | 0 | 0
7 | CN1CCC(Nc2ccc(C(=O)Nc3cc(-c4ccc5c(c4)OCO5)[nH]n3)cc2)CC1 (10 µM) | inactive: 0 | inactive: 0 | inactive: 0 | inactive: 0 | inactive: 0 | inactive: 0 | inactive: 0 | inactive: 0 | inactive: 0 | inactive: 0 | inactive: 0 | inactive: 0 | inactive: 0 | inactive: 0 | inactive: 0 | inactive: 0 | inactive: 0 | inactive: 0 | 2 | 0
8 | N=C(NC(=N)N1CCCC1)Nc1ccc(OC(F)(F)F)cc1 (10 µM) | inactive: 0 | inactive: 0 | inactive: 0 | inactive: 0 | inactive: 0 | inactive: 0 | inactive: 0 | inactive: 0 | inactive: 0 | inactive: 0 | inactive: 0 | inactive: 0 | inactive: 0 | inactive: 0 | inactive: 0 | inactive: 0 | inactive: 0 | inactive: 0 | 0 | 0
9 | CN1CCN(c2ccc(-c3ccncc3-c3cc(F)c(O)c(F)c3)cc2)CC1 (10 µM) | inactive: 0 | inactive: 0 | inactive: 0 | inactive: 0 | inactive: 0 | inactive: 0 | inactive: 0 | inactive: 0 | inactive: 0 | inactive: 0 | inactive: 0 | inactive: 0 | inactive: 0 | inactive: 0 | inactive: 0 | inactive: 0 | inactive: 0 | inactive: 0 | 0 | 0
